Measurements: patent US20200010554A1 (TUSK THERAPEUTICS, published 2020)
Numbering of substitutions follows the chain as printed. Results are given in words; binding and its absence hold for the method and conditions named. Some results given as binding are weak or reduced against the parent protein; the word gives no strength.

Key:
[1] = target: T1, recombinant human CD25 his tagged (human, UniProt P01589 22-213, limits assumed); assay: BLI (Octet), sequential binding to immobilized rhCD25 his tagged, first antibody step [B]
T1 construct: also called rhCD25 his tagged; rhCD25; not shown: his tag
T1 sequence: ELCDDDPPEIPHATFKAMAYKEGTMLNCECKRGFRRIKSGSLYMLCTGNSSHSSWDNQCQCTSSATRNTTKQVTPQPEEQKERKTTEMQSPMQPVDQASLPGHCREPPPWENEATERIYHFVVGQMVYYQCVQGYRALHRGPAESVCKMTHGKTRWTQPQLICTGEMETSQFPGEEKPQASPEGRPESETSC

[2] = target: human CD25 expressed on cells (Karpas 299, SU-DHL-1, SR-786, in vitro differentiated Treg cells, PBMC) (human) (UniProt P01589); assay: flow cytometry on Karpas 299 cells, MFI AF647
[3] = target: human CD25 expressed on cells (Karpas 299, SU-DHL-1, SR-786, in vitro differentiated Treg cells, PBMC) (human) (UniProt P01589); assay: flow cytometry titration on Karpas 299 cells (FIG. 21)
[4] = target: human CD25 (soluble antigen of the Octet Red384 sandwich assays, 100 nM) (human) (UniProt P01589); assay: BLI, Octet Red384 sandwich assay: MA251 on AHQ sensor, 100 nM human CD25, then 100 nM human IL-2
[5] = target: human CD25 (soluble antigen of the Octet Red384 sandwich assays, 100 nM) (human) (UniProt P01589); assay: BLI Octet Red384 sandwich assay, MA251 on AHQ sensor, 100 nM human CD25, then 100 nM human IL-2 (FIG. 23)
[6] = target: T1, recombinant human CD25 his tagged; assay: BLI, Octet Red96 sequential binding: rhCD25 his tagged on Ni-NTA sensor, first antibody 66.6 nM, then second antibody 66.6 nM
[7] = target: T1, recombinant human CD25 his tagged; assay: BLI, Octet Red96 sequential binding: rhCD25 his tagged on Ni-NTA sensor, first antibody 66.6 nM, then second antibody 66.6 nM [D00027 FIGURE 24 cont. Q]
[8] = target: human CD25 expressed on cells (Karpas 299, SU-DHL-1, SR-786, in vitro differentiated Treg cells, PBMC) (human) (UniProt P01589); assay: flow cytometry titration on Karpas 299 cells, AF647 secondary antibody
[9] = target: T1, recombinant human CD25 his tagged; assay: BLI (Octet), sequential binding to immobilized rhCD25 his tagged, first antibody step

B1: Antibody 19 (antibody, V domains shown)
VH: QVQLVESGGGVVQPGGSLRLSCAVSGFSLTSYGIQWVRQAPGKGLEWVSVIWAGGSTNYNSALMSRFTISKDNSKSTLYLQMNSLRAEDTAVYYCARAYGYDGSWLAYWGQGTLVTVSS
VL: QIVLTQSPATLSLSPGERATLSCRASSSVSYMHWYQQKPGQAPRPLIFATSNLASGIPARFSGSGSGTDYTLTISSLEPEDFAVYYCQQWSSNPPTFGGGTKLEIK
notes: also called Ab19; Antibodyl9
Question: With B1 as the binder, how does the binding [1] read?
Answer: binds

B2: MA251, mouse anti-human CD25 antibody (antibody, V domains shown)
VH: QVQLKESGPGLVAPSQSLSITCTVSGFSLTSYGIQWVRQPPGKGLEWLGVIWAGGSTNYNSALMSRLSISKDNSKSQVFLKMNSLQTDDTAMYYCARAYGYDGSWLAYWGQGTLVTVSS
VL: QIVLSQSPAILSASPGEKVTMTCRASSSVSYMHWYQQKPGSSPKPWIFATSNLASGVPARFSGSGSGTSYSLTINRVEAEDADTYYCQQWSSNPPTFGGGTKLEIK
notes: Mouse isotype (compared with a mouse IgG1 isotype control)
Question: For B2, which binding [2] is on record?
Answer: binds

Question: What about the binding [3] of the same binder?
Answer: binds

Question: What about the binding [4] of the same binder?
Answer: binds

Question: And the binding [5]?
Answer: binds

Question: What about the binding [6] of the same binder?
Answer: binds

B3: 7G7B6, mouse IgG2a anti-human CD25 antibody (antibody, V domains shown)
VH: EVQLVESGGDLVQPRGSLKLSCAASGFTFSSYGMSWVRQTPDKRLELVATINGYGDTTYYPDSVKGRFTISRDNAKNTLYLQMSSLKSEDTAMYFCARDRDYGNSYYYALDYWGQGTSVTVSS
VL: B2 VL with K18R, Y31F, Y35L, F48Y, P58S, N75T, D83A, T96A
notes: also called 7G76B; mouse anti-human CD25 clone 7G7B6
Question: B3 was tested. Which binding [7] did it give?
Answer: binds

B4: Antibody 5 (antibody, V domains shown)
VH: EVQLVESGGGLIQPGGSLRLSCAASGFTLDSYGVSWVRQAPGKGLEWVGVTSSGGSAYYADSVKGRFTISRDNSKNTLYLQMNSLRAEDTAVYYCARDRYVYTGGYLYHYGMDLWGQGTLVTVSS
VL: DIQMTQSPSSLSASVGDRVTITCRASQSISDYLAWYQQKPGKVPKLLIYAASTLPFGVPSRFSGSGSGTDFTLTISSLQPEDVATYYCQGTYDSSDWYWAFGGGTKVEI
notes: compared with a human IgG1 isotype control
Question: Which binding [8] does the source give for B4 here?
Answer: binds

Question: What about the binding [9] of the same binder?
Answer: binds

B5: Antibody 7 (antibody, V domains shown)
VH: EVQLLESGGGLVQPGGSLRLSCAASGFTFSSYGMSWVRQAPGKGLELVSTINGYGDTTYYPDSVKGRFTISRDNSKNTLYLQMNSLRAEDTAVYYCARDRDYGNSYYYALDYWGQGTLVTVSS
VL: B1 VL with A9G, Y31F, Y35L, A42S, F48Y, A59D, S76R, T96A, G99Q
notes: as for B4
Question: B5 was tested. Which binding [1] did it give?
Answer: binds
